Test results as given in PubChem BioAssay AID493014 (National Center for Advancing Translational Sciences (NCATS), 2011).
The other results are listed elsewhere or left out. The main result of the screen is listed elsewhere. These columns were measured beside it and carry no call. The list favours compounds with an active or inconclusive main result. Potencies come from curve fits of mixed quality, noted in brackets.

Assay: qHTS Assay to Find Inhibitors of Chronic Active B-Cell Receptor Signaling
Conditions: ABC-DLBCL IkBa-CBG/CBR reporter, luminescence ratio (green luciferase fused to IkBa over red control in TMD8 lymphoma cells), 4 h
Method in brief: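 Cell line TMD8 (human ABC DLBCL), stably expressing tet-inducible CBG68-IkBa fusion and CBR; IMDM/0.5% FBS; cpd up to 46 uM; dox induction, 4 h, 37C/5% CO2; dual luminescence; green/red ratio; MG132 control.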

[1] = measured here: CBR red luminescence, cell number
[2] = measured here: IkBa-CBG green luminescence

## C=C1C(=O)O[C@@H]2C[C@@H](C)[C@@H]3C=CC(=O)[C@@]3(C)[C@@H](O)[C@H]12
[1]
  AC50: 0.891 µM [falling, full curve]

## COc1cc([C@@H]2c3cc4c(cc3[C@@H](OC)[C@H]3COC(=O)[C@H]23)OCO4)cc(OC)c1O
[1]
  AC50: 11.2 µM [rising, partial curve]
[2]
  AC50: 15.8 µM [falling, single point]

## O=C(Cn1c(=O)oc2ccccc21)Nc1ccccc1N1CCOCC1
[1]
  AC50: 14.1 µM [falling, single point]

## O=c1[nH]c(=S)n(C2CC2)c(O)c1/C=N/Nc1ccccc1
[1]
  AC50: 6.51 µM [falling, partial curve]

## O=C(CCCOc1ccc(Cl)cc1Cl)N1CCC2(CC1)OCCO2
[1]
  AC50: 7.31 µM [falling, single point]

## CCOc1ccc(-c2cc(C)[n+](CCO)c(-c3ccc(OCC)cc3)c2)cc1
[1]
  AC50: 15.8 µM [falling, partial curve, poor fit]

## CN1CCN(c2ccc(C(F)(F)F)cc2N)CC1
[1]
  AC50: 35.5 µM [rising, single point]

## COc1ccc(/C=N/NC(=O)c2[nH]c3ccc(C)cc3c2-c2ccccc2)c(C(=O)O)c1OC
[1]
  AC50: 11.2 µM [rising, partial curve]

## Oc1ccc(Cl)cc1CN1CCN(Cc2ccccc2)CC1
[1]
  AC50: 0.461 µM [falling, partial curve, poor fit]

## COc1cccc(-n2c(-c3ccoc3)nc3ccccc3c2=O)c1
[1]
  AC50: 6.51 µM [rising, partial curve, poor fit]

## O=C(c1cccc([N+](=O)[O-])c1)c1ccc2[nH]c(=O)[nH]c2c1
[1]
  AC50: 5.01 µM [rising, partial curve, poor fit]

## CCC(=NCc1ccc2c(c1)OCO2)c1c(O)n(C2CCCCC2)c(=O)[nH]c1=O
[1]
  AC50: 29.1 µM [falling, single point]

## O=c1c2ccccc2nc(/C=C/c2ccccc2O)n1-c1ccccc1O
[1]
  AC50: 15.8 µM [falling, partial curve, poor fit]

## CNC(=O)c1cccn(Cc2ccc(C(F)(F)F)cc2)c1=O
[1]
  AC50: 8.91 µM [rising, partial curve]

## BrCC1C[n+]2c(SCc3ccccc3)nc3sc4c(c3c2O1)CCCC4 (stereo not drawn)
[1]
  AC50: 35.5 µM [rising, single point]

## O=C1NC(=O)N(c2cccc(F)c2)C(=O)/C1=C/c1ccc(N2CCOCC2)cc1
[1]
  AC50: 7.08 µM [falling, full curve]

## CCOC(=O)Cn1c(=O)oc2cc(S(=O)(=O)N(C)c3ccc(OC)cc3)ccc21
[1]
  AC50: 10 µM [rising, single point]

## COC(=O)C1=C(c2ccc(OC(F)(F)F)cc2)C[C@@H]2CC[C@H]1N2C(=O)NCCOc1ccccc1
[1]
  AC50: 29.1 µM [falling, single point]

## CCCC(CCC)C(=O)OC[N+](C)(C)CCOC(=O)C(O)(c1ccccc1)C1CCCC1 (stereo not drawn)
[1]
  AC50: 31.6 µM [falling, single point]

## CN(Cc1ccccc1)C1CCCN(C(=O)COc2ccccc2Cl)C1 (stereo not drawn)
[1]
  AC50: 35.5 µM [falling, single point]

## O=C(NCC(O)c1ccccc1)Nc1cccs1 (stereo not drawn)
[1]
  AC50: 11.2 µM [falling, partial curve]

## O=[N+]([O-])c1ccc(Cl)c(Cl)c1Cl
[1]
  AC50: 2.91 µM [rising, full curve, poor fit]

## Cc1cc(N2CCN(S(=O)(=O)c3ccc(Cl)c(Cl)c3)CC2)c2ccccc2n1
[1]
  AC50: 25.1 µM [falling, single point]

## CCOC(=O)N1CCN(C(=O)CSCc2nc(-c3ccccc3C)oc2C)CC1
[1]
  AC50: 17.8 µM [falling, single point]

## COc1ccc(C(=O)NC(=S)N2C[C@H]3C[C@H](C2)c2cccc(=O)n2C3)cc1
[1]
  AC50: 35.5 µM [rising, single point]

## COCCOC(=O)C1=C(N)Oc2c(c(=O)oc3ccccc23)[C@@]12C(=O)Nc1ccccc12
[1]
  AC50: 6.51 µM [falling, partial curve]

## C/C(=N\NC(=O)c1ccccc1O)c1c(O)n(C2CCCCC2)c(=O)[nH]c1=O
[1]
  AC50: 4.47 µM [falling, full curve]

## COc1ccc(-n2c(O)c(C(C)=NCc3ccc4c(c3)OCO4)c(=O)[nH]c2=O)cc1
[1]
  AC50: 0.794 µM [rising, full curve, poor fit]

## C=CCn1c(O)c(C(C)=NCCc2c[nH]c3ccccc23)c(=O)[nH]c1=O
[1]
  AC50: 35.5 µM [falling, single point]

## COC(=O)C1=C(c2ccc(F)cc2OCc2ccccc2)C[C@@H]2CC[C@H]1N2C(=O)NCc1ccc(OC)c(OC)c1
[1]
  AC50: 29.1 µM [falling, single point]

## COC(=O)C1=C(c2cccc(OCc3ccccc3)c2)C[C@@H]2CC[C@H]1N2C(=O)NCc1ccc2[nH]ccc2c1
[1]
  AC50: 29.1 µM [falling, single point]

## CC(N)Cc1cn(Cc2ccccc2)c2ccccc12 (stereo not drawn)
[1]
  AC50: 35.5 µM [falling, single point]

## COc1ccc(CNc2oc(-c3cccc4ccccc34)nc2P(=O)(OC)OC)cc1
[1]
  AC50: 35.5 µM [falling, single point]

## O=C(O)c1cccc2c1NC(c1cccc([N+](=O)[O-])c1)C1CC(Sc3ccccc3[N+](=O)[O-])C(Cl)C21 (stereo not drawn)
[1]
  AC50: 35.5 µM [rising, single point]

## CCc1ccc2c(CN3CC=C(c4ccccc4)CC3)cc(=O)oc2c1
[1]
  AC50: 3.66 µM [rising, single point]

## O=C(O)c1nonc1-c1nonc1C(=O)O
[1]
  AC50: 4.61 µM [rising, full curve, poor fit]

## Cc1cccc2sc(NC(=O)c3cccn(Cc4ccccc4)c3=O)nc12
[1]
  AC50: 20 µM [falling, partial curve, poor fit]

## O=C(Cn1ncc2c3ccccc3n(Cc3ccc(F)cc3)c2c1=O)N1CCC2(CC1)OCCO2
[1]
  AC50: 4.11 µM [falling, partial curve, poor fit]
[2]
  AC50: 5.8 µM [rising, partial curve, poor fit]

## Cn1nc(OC(=O)Nc2ccc(Cl)cc2)cc1C(F)(F)F
[1]
  AC50: 0.58 µM [rising, full curve, poor fit]

## CC1(C)C(C(=O)N2CCN(c3ccc(Cl)cc3)CC2)C1(C)C
[1]
  AC50: 1.78 µM [rising, full curve, poor fit]

## CCC(=Nc1ccc(OC)cc1OC)c1c(O)[nH]c(=O)[nH]c1=O
[1]
  AC50: 3.98 µM [falling, single point]
[2]
  AC50: 15.8 µM [falling, partial curve, poor fit]

## CC(=O)O[C@@H]1[C@H]2[C@@H](C[C@@H](C)[C@@H]3C=CC(=O)[C@@]13C)OC(=O)[C@@H]2C
[1]
  AC50: 7.94 µM [falling, partial curve, poor fit]

## COc1cc2c3cc1Oc1cc(ccc1O)C[C@@H]1c4c(cc(OC)c(O)c4Oc4ccc(cc4)C[C@H]3N(C)CC2)CCN1C
[2]
  AC50: 13 µM [falling, partial curve]

## NNC(=O)c1ccc(Cl)cc1
[1]
  AC50: 9.2 µM [falling, partial curve]

## Fc1ccccc1CCNCc1cccc2ccccc12
[1]
  AC50: 11.6 µM [rising, partial curve, poor fit]

## C#C[C@@]1(O)CCC2C3CCC4=C/C(=N/OCC(=O)NC(C(=O)O)C(C)O)CC[C@]4(C)C3CC[C@@]21C (stereo partly drawn)
[1]
  AC50: 31.6 µM [rising, single point]

## COc1ccc(-c2cc(=Nc3ccccc3)c3cc(C)ccc3o2)cc1
[1]
  AC50: 2.59 µM [rising, full curve]

## O=c1[nH]c(=S)n(Cc2ccc(F)cc2)c(O)c1C=NCc1cccnc1
[1]
  AC50: 2.31 µM [falling, single point]

## CCN1CCN(c2cc(=O)n3ccccc3n2)CC1
[1]
  AC50: 17.8 µM [rising, partial curve, poor fit]

## Cc1cc(NC(=O)c2cccn(Cc3ccccc3)c2=O)no1
[1]
  AC50: 35.5 µM [falling, single point]

## CCCc1[nH]nc2c1C1(C(=O)N(Cc3ccccc3)c3ccccc31)C(C(=O)OC)=C(N)O2 (stereo not drawn)
[1]
  AC50: 20.6 µM [falling, single point]

## Cc1cc(NC(=O)CSc2c3c(nc4ccccc24)CCC3)no1
[1]
  AC50: 11.2 µM [falling, partial curve]

## Cc1ccc2c(c1)[C@@H]1CN(C)CC[C@@H]1N2C(=O)Nc1cccc(C(F)(F)F)c1
[1]
  AC50: 29.1 µM [falling, single point]

## CC(=O)C1C2c3ccccc3O[C@@]1(C)N=c1s/c(=C/c3ccoc3)c(=O)n12 (stereo partly drawn)
[1]
  AC50: 29.1 µM [falling, single point]

## OC(Cn1c2ccccc2c2ccccc21)C[n+]1cccc2ccccc21 (stereo not drawn)
[1]
  AC50: 35.5 µM [falling, single point]

## CN1CC(C(=O)c2ccc([N+](=O)[O-])cc2)C(c2ccc(Cl)cc2)C1 (stereo not drawn)
[1]
  AC50: 6.31 µM [rising, partial curve, poor fit]

## COC(=O)c1ccc(CC(C(=O)c2ccccc2)N(C)C)cc1 (stereo not drawn)
[1]
  AC50: 14.1 µM [rising, partial curve, poor fit]

## Cc1ccc(N(Cc2cc(=O)[nH]c3ccccc23)C(=O)CCl)c(C)c1
[1]
  AC50: 35.5 µM [falling, single point]

## O=[N+]([O-])c1cnc2ccc3ccccc3c2c1
[1]
  AC50: 11.2 µM [falling, single point]

## CC(C)(C)n1cccc1/C=C1\C(=O)NC(=O)N(c2ccccc2)C1=O
[1]
  AC50: 23.1 µM [rising, partial curve, poor fit]
